From the supplement of paper PMC4604168 (melanoma cell lines)
Some of the results follow. Single values are uncertain, as repeats are few or missing.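 The apoptosis fraction was the count of cleaved-PARP antibody-stained nuclei relative to all DNA-stained nuclei, imaged in 1,536-well plates. Screening doses were set so most cells survived, and baseline and induced cleaved-PARP levels vary greatly across cell lines.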

system: WM3619; experiment: cleaved PARP positive nuclei fraction relative to DMSO control; melanoma cells; higher = more apoptosis; details: library dose: low library concentration; 72 h

First: NC(=O)Nc1cc(-c2cccc(F)c2)sc1C(=O)N[C@H]1CCCNC1 + O=C1NC(=O)/C(=C/c2ccc(-c3ccc(F)cc3O)o2)S1 [AS252424] (first compound 0.02 µM, partner dose 1 µM)
Second: CC(C)(C)c1cnc(CSc2cnc(NC(=O)C3CCNCC3)s2)o1 + O=C(O)c1ccc(-c2c[nH]c3ncc(-c4ccccc4)cc23)cc1C1CCCC1 [GSK650394] (first compound 0.01 µM, partner dose 0.16 µM)
The “cleaved PARP positive nuclei fraction” value of the first is higher: 123% for the first, 70.9% for the second.

Going from OCc1c[nH]c2ccccc12 [Indole-3-carbinol] + O=c1cc(-c2cccc3c2Sc2ccccc2S3)oc(N2CCOCC2)c1 [KU55933] (first compound 0.8 µM, partner dose 1 µM) to O=C(CCCCCCC(=O)Nc1ccccc1)NO [vorinostat] + N#Cc1c(O)c2c(-c3ccc(-c4ccccc4O)cc3)csc2[nH]c1=O [A769662] (first compound 0.08 µM, partner dose 2 µM), the “cleaved PARP positive nuclei fraction” value rises from 16% to 78.8%.

First: COCC[n+]1c2c(n(Cc3cnccn3)c1C)C(=O)c1ccccc1C2=O + C[C@@H]1CCN(C(=O)CC#N)C[C@@H]1N(C)c1ncnc2[nH]ccc12 [CP690550] (first compound 0.0004 µM, partner dose 1 µM)
Second: C#Cc1cccc(Nc2ncnc3cc(OCCOC)c(OCCOC)cc23)c1 [erlotinib] + Cn1c(Nc2ccc(C(F)(F)F)cc2)nc2cc(Oc3ccnc(-c4ncc(C(F)(F)F)[nH]4)c3)ccc21 [CHIR265] (first compound 0.8 µM, partner dose 0.08 µM)
The “cleaved PARP positive nuclei fraction” value of the first is lower: 91.6% for the first, 222% for the second.

Compared with CC(=O)c1c(C)c2cnc(Nc3ccc(N4CCNCC4)cn3)nc2n(C2CCCC2)c1=O [palbociclib] + COc1ccc(-c2ccc3c(N4CCOCC4)nc(N4C[C@@H](C)O[C@@H](C)C4)nc3n2)cc1CO [KU0063794] (first compound 0.04 µM, partner dose 0.02 µM), C=CCn1c(=O)c2cnc(Nc3ccc(N4CCN(C)CC4)cc3)nc2n1-c1cccc(C(C)(C)O)n1 + Cn1cncc1[C@@](N)(c1ccc(Cl)cc1)c1ccc2c(c1)c(-c1cccc(Cl)c1)cc(=O)n2C [tipifarnib] (first compound 0.02 µM, partner dose 0.01 µM) is higher in “cleaved PARP positive nuclei fraction” value: 125% for the first, 132% for the second.

Compared with CC(=O)c1c(C)c2cnc(Nc3ccc(N4CCNCC4)cn3)nc2n(C2CCCC2)c1=O [palbociclib] + COc1ccc(Cl)c(Nc2nc3ccccc3nc2NS(=O)(=O)c2cccc(NC(=O)C(C)(C)N)c2)c1 [XL147] (first compound 0.04 µM, partner dose 0.8 µM), Cc1cc(N2CCOCC2)cc2[nH]c(-c3c(NC[C@@H](O)c4cccc(Cl)c4)cc[nH]c3=O)nc12 + Cn1cc(/C=C2\C(=O)Nc3cccnc32)c2ccccc21 [GW441756] (first compound 0.2 µM, partner dose 0.4 µM) is lower in “cleaved PARP positive nuclei fraction” value: 111% for the first, 74.7% for the second.

Compared with CC(=O)c1c(C)c2cnc(Nc3ccc(N4CCNCC4)cn3)nc2n(C2CCCC2)c1=O [palbociclib] + COc1cc2ncnc(Nc3ccc(Oc4ccccc4)cc3)c2cc1OC [SrcI1] (first compound 0.04 µM, partner dose 2 µM), Cc1cc(N2CCOCC2)cc2[nH]c(-c3c(NC[C@@H](O)c4cccc(Cl)c4)cc[nH]c3=O)nc12 + CN(C)S(=O)(=O)c1ccc2c(c1)/C(=C/c1cc3c([nH]1)CCCC3)C(=O)N2 [SU6656] (first compound 0.2 µM, partner dose 0.4 µM) is lower in “cleaved PARP positive nuclei fraction” value: 133% for the first, 119% for the second.

First: OCc1c[nH]c2ccccc12 [Indole-3-carbinol] + C[C@@H]1CCN(C(=O)CC#N)C[C@@H]1N(C)c1ncnc2[nH]ccc12 [CP690550] (first compound 0.8 µM, partner dose 1 µM)
Second: O=C(CCCCCCC(=O)Nc1ccccc1)NO [vorinostat] + CC(C)(C)c1cnc(CSc2cnc(NC(=O)C3CCNCC3)s2)o1 [SNS-032] (first compound 0.08 µM, partner dose 0.01 µM)
The “cleaved PARP positive nuclei fraction” value of the first is higher: 107% for the first, 82.7% for the second.

Compared with C[C@@H]1CCN(C(=O)CC#N)C[C@@H]1N(C)c1ncnc2[nH]ccc12 + O=S(=O)(c1ccccc1)N(CC(F)(F)F)c1ccc(C(O)(C(F)(F)F)C(F)(F)F)cc1 [T0901317] (first compound 1 µM, partner dose 1.4 µM), CC(=O)c1c(C)c2cnc(Nc3ccc(N4CCNCC4)cn3)nc2n(C2CCCC2)c1=O [palbociclib] + OCCn1cc(-c2cnc3nnn(Cc4ccc5ncccc5c4)c3n2)cn1 [PF04217903] (first compound 0.04 µM, partner dose 1 µM) is higher in “cleaved PARP positive nuclei fraction” value: 77.7% for the first, 118% for the second.

Compared with NC(=O)Nc1cc(-c2cccc(F)c2)sc1C(=O)N[C@H]1CCCNC1 + COC(=O)c1sccc1S(=O)(=O)Nc1ccc(Nc2ccccc2)cc1OC [GSK0660] (first compound 0.02 µM, partner dose 1 µM), C[C@]1(c2nc3c(C(N)=O)cccc3[nH]2)CCCN1 [Veliparib] + O=C(Nc1cccc(Cl)c1)Nc1ncc(CCNc2ncnc3ccsc23)s1 [SNS314] (first compound 1.4 µM, partner dose 0.0008 µM) is lower in “cleaved PARP positive nuclei fraction” value: 119% for the first, 101% for the second.

Compared with C[C@]1(c2nc3c(C(N)=O)cccc3[nH]2)CCCN1 [Veliparib] + OCCn1cc(-c2cnc3nnn(Cc4ccc5ncccc5c4)c3n2)cn1 [PF04217903] (first compound 1.4 µM, partner dose 1 µM), NC(=O)Nc1cc(-c2cccc(F)c2)sc1C(=O)N[C@H]1CCCNC1 + O=C(Nc1ccccc1)c1cc([N+](=O)[O-])ccc1Cl [GW9662] (first compound 0.02 µM, partner dose 2 µM) is higher in “cleaved PARP positive nuclei fraction” value: 101% for the first, 107% for the second.

Going from COc1cc(Nc2ncc(F)c(Nc3ccc4c(n3)NC(=O)C(C)(C)O4)n2)cc(OC)c1OC [Tamatinib] + CC(C)(C)c1cnc(CSc2cnc(NC(=O)C3CCNCC3)s2)o1 [SNS-032] (first compound 0.4 µM, partner dose 0.01 µM) to C#Cc1cccc(Nc2ncnc3cc(OCCOC)c(OCCOC)cc23)c1 [erlotinib] + C=CCn1c(=O)c2cnc(Nc3ccc(N4CCN(C)CC4)cc3)nc2n1-c1cccc(C(C)(C)O)n1 [MK1775] (first compound 0.8 µM, partner dose 0.02 µM), the “cleaved PARP positive nuclei fraction” value rises from 81.6% to 200%.

First: COCC[n+]1c2c(n(Cc3cnccn3)c1C)C(=O)c1ccccc1C2=O + COC(=O)c1sccc1S(=O)(=O)Nc1ccc(Nc2ccccc2)cc1OC [GSK0660] (first compound 0.0004 µM, partner dose 1 µM)
Second: CO[C@@H]1[C@H](N(C)C(=O)c2ccccc2)C[C@H]2O[C@]1(C)n1c3ccccc3c3c4c(c5c6ccccc6n2c5c31)C(=O)NC4 [Midostaurin] + Cc1cc([N+](=O)[O-])ccc1NS(=O)(=O)c1cc(Cl)ccc1Cl [FH535] (first compound 0.08 µM, partner dose 1 µM)
The “cleaved PARP positive nuclei fraction” value of the first is higher: 85% for the first, 58.2% for the second.

Going from NC(=O)Nc1cc(-c2cccc(F)c2)sc1C(=O)N[C@H]1CCCNC1 + COc1ccc(COc2ccc(Cc3cnc(N)nc3N)cc2OC)cc1 [GW2580] (first compound 0.02 µM, partner dose 1 µM) to C[C@@H]1CCN(C(=O)CC#N)C[C@@H]1N(C)c1ncnc2[nH]ccc12 + O=C1NC(=O)/C(=C/c2ccc(-c3ccc(F)cc3O)o2)S1 [AS252424] (first compound 1 µM, partner dose 1 µM), the “cleaved PARP positive nuclei fraction” value falls from 155% to 76.8%.

Going from NC(=O)Nc1cc(-c2cccc(F)c2)sc1C(=O)N[C@H]1CCCNC1 + CC(C)CCN1c2nc(Nc3cc(F)c(O)c(F)c3)ncc2N(C)C(=O)C1C [BID1870] (first compound 0.02 µM, partner dose 0.2 µM) to CO[C@@H]1[C@H](N(C)C(=O)c2ccccc2)C[C@H]2O[C@]1(C)n1c3ccccc3c3c4c(c5c6ccccc6n2c5c31)C(=O)NC4 [Midostaurin] + O=C(O)C(=O)Nc1sc2c(c1C(=O)O)CCNC2 [TCS401] (first compound 0.08 µM, partner dose 1.66667 µM), the “cleaved PARP positive nuclei fraction” value falls from 182% to 79.5%.

Compared with Cn1nnc2c(C(N)=O)ncn2c1=O [temozolomide] + Cn1cc(/C=C2\C(=O)Nc3cccnc32)c2ccccc21 [GW441756] (first compound 2 µM, partner dose 0.4 µM), CC1(C)NC(=O)N(c2ccc([N+](=O)[O-])c(C(F)(F)F)c2)C1=O [nilutamide] + CCCCCCCCCCCC1=C(O)C(=O)C=C(O)C1=O [Embelin] (first compound 1 µM, partner dose 1.2 µM) is lower in “cleaved PARP positive nuclei fraction” value: 293% for the first, 77.5% for the second.

Compared with C=CCNC1=C2C[C@@H](C)C[C@H](OC)[C@H](O)[C@@H](C)/C=C(\C)[C@H](OC(N)=O)[C@@H](OC)/C=C\C=C(/C)C(=O)NC(=CC1=O)C2=O [Tanespimycin] + CC(C)(C)c1cnc(CSc2cnc(NC(=O)C3CCNCC3)s2)o1 [SNS-032] (first compound 0.002 µM, partner dose 0.01 µM), Cn1c(Nc2ccc(C(F)(F)F)cc2)nc2cc(Oc3ccnc(-c4ncc(C(F)(F)F)[nH]4)c3)ccc21 + COCC[n+]1c2c(n(Cc3cnccn3)c1C)C(=O)c1ccccc1C2=O [YM155] (first compound 0.08 µM, partner dose 0.0004 µM) is higher in “cleaved PARP positive nuclei fraction” value: 82.8% for the first, 150% for the second.

C=CCNC1=C2C[C@@H](C)C[C@H](OC)[C@H](O)[C@@H](C)/C=C(\C)[C@H](OC(N)=O)[C@@H](OC)/C=C\C=C(/C)C(=O)NC(=CC1=O)C2=O [Tanespimycin] + CN(NC(=O)CC(=O)NN(C)C(=S)c1ccccc1)C(=S)c1ccccc1 [STA4783] (first compound 0.002 µM, partner dose 0.006 µM) was tested, and the “cleaved PARP positive nuclei fraction” value was 145%.
